Data reported in the supplement of paper PMC12819154, “High-throughput peptide-centric local stability assay extends protein–ligand identification to membrane proteins, tissues and bacteria” (Nature Structural & Molecular Biology, 2025).
This is one part of the list. Small differences around the control level are noise.

Amino acid sequences for entries named in this document (tags omitted). A change or cut given only in a name is not applied to a line headed by its entry.
UniProt P61289: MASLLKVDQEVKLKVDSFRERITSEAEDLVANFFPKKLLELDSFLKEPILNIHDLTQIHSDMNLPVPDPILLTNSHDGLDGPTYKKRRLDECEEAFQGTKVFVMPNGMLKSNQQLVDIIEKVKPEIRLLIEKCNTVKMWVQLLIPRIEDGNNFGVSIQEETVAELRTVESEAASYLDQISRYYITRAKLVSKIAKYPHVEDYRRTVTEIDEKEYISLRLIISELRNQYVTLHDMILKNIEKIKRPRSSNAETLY
UniProt P58317: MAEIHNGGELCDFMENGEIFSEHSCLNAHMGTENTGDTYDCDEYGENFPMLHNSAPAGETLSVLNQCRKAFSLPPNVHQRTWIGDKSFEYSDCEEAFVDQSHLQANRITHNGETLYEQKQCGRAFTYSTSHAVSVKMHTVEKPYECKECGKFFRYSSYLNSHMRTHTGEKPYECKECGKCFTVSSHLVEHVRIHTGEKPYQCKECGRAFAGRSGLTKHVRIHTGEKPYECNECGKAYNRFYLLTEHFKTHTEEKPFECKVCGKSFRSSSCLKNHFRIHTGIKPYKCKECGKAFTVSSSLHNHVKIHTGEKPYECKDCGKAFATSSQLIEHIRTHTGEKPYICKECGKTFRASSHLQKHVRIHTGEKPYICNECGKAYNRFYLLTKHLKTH
UniProt P56181: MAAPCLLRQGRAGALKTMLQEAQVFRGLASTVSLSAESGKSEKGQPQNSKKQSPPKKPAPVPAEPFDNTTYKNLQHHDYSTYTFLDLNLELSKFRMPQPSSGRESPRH
UniProt P62310: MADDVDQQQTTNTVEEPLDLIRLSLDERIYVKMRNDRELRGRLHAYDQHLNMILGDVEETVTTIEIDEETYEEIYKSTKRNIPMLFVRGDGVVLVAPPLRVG
UniProt P62491: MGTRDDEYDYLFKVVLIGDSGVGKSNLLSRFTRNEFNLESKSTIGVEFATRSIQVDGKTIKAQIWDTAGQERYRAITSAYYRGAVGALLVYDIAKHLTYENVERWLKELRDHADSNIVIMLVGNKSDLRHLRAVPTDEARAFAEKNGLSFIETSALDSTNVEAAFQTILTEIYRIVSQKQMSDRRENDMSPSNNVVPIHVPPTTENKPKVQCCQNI
UniProt P68036, whole entry: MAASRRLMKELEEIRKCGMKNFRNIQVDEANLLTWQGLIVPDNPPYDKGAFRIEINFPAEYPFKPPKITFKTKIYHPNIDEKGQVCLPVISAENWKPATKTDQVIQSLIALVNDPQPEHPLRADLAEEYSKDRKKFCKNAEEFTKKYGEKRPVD
UniProt P62633: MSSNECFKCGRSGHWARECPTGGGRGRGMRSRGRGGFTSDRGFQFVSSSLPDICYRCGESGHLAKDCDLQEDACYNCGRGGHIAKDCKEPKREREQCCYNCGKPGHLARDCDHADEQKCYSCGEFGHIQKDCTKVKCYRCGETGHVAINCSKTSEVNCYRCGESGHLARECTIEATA
UniProt P57071, whole entry: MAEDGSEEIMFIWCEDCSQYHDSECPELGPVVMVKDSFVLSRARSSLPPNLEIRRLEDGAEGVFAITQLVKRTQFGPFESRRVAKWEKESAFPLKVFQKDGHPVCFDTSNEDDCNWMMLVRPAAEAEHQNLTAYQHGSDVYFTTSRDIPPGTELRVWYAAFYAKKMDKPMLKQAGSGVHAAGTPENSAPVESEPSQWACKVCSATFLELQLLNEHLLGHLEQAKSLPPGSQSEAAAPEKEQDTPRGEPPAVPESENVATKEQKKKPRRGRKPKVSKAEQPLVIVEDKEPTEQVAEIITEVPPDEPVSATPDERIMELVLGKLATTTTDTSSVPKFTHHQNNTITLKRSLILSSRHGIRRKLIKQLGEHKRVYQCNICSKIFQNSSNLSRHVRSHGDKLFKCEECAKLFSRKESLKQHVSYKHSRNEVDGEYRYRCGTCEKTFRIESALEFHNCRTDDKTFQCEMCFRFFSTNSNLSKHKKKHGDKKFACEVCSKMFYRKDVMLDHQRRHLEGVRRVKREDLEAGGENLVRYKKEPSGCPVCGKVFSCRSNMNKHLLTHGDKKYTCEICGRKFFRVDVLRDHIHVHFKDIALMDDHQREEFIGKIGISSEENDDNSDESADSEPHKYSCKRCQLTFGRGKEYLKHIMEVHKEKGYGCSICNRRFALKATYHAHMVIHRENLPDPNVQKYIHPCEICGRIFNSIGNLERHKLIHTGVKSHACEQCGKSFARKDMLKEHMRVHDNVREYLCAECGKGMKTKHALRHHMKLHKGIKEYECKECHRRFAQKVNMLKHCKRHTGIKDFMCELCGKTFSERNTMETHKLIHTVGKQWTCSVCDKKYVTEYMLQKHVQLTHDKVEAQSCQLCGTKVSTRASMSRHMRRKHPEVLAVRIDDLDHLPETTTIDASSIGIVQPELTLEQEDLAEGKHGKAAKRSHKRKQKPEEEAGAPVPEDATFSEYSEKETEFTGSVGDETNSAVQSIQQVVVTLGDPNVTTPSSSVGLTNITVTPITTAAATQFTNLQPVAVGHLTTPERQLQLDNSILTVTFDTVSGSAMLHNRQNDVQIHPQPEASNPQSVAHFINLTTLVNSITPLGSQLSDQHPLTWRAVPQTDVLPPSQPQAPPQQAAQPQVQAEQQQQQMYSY
UniProt P56282: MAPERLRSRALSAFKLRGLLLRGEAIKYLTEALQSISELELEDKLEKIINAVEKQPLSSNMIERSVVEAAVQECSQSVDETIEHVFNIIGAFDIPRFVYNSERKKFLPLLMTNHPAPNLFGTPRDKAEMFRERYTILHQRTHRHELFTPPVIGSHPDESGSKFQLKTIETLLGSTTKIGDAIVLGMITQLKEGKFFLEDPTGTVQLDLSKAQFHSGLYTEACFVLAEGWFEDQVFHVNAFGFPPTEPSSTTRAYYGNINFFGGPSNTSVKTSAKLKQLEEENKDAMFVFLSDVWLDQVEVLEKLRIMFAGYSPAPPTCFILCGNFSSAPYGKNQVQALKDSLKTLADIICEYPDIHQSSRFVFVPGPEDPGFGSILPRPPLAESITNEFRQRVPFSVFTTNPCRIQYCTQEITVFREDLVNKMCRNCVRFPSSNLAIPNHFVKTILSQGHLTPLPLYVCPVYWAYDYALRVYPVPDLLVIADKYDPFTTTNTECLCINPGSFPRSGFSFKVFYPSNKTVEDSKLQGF
UniProt P57682: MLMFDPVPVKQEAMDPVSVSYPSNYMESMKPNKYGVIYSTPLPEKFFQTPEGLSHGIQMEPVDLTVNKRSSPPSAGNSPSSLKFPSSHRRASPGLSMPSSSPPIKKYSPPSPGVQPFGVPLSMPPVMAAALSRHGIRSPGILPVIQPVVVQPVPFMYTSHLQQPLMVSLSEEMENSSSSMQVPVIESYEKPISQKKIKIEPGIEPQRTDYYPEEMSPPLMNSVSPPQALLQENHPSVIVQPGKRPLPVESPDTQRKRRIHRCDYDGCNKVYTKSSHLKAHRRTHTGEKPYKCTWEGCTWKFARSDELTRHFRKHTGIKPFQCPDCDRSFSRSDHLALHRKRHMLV
UniProt P55345: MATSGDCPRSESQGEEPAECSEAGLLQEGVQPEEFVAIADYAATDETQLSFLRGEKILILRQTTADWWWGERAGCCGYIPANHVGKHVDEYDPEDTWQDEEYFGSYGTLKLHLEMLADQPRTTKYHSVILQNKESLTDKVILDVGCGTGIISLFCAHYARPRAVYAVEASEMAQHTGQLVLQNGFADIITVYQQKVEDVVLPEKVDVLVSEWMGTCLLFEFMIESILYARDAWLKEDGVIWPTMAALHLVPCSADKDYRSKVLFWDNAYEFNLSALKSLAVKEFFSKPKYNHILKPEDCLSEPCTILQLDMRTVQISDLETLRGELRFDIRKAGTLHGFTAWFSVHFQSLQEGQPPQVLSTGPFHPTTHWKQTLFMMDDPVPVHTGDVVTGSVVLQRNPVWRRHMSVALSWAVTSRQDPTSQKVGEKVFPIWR
UniProt P56645: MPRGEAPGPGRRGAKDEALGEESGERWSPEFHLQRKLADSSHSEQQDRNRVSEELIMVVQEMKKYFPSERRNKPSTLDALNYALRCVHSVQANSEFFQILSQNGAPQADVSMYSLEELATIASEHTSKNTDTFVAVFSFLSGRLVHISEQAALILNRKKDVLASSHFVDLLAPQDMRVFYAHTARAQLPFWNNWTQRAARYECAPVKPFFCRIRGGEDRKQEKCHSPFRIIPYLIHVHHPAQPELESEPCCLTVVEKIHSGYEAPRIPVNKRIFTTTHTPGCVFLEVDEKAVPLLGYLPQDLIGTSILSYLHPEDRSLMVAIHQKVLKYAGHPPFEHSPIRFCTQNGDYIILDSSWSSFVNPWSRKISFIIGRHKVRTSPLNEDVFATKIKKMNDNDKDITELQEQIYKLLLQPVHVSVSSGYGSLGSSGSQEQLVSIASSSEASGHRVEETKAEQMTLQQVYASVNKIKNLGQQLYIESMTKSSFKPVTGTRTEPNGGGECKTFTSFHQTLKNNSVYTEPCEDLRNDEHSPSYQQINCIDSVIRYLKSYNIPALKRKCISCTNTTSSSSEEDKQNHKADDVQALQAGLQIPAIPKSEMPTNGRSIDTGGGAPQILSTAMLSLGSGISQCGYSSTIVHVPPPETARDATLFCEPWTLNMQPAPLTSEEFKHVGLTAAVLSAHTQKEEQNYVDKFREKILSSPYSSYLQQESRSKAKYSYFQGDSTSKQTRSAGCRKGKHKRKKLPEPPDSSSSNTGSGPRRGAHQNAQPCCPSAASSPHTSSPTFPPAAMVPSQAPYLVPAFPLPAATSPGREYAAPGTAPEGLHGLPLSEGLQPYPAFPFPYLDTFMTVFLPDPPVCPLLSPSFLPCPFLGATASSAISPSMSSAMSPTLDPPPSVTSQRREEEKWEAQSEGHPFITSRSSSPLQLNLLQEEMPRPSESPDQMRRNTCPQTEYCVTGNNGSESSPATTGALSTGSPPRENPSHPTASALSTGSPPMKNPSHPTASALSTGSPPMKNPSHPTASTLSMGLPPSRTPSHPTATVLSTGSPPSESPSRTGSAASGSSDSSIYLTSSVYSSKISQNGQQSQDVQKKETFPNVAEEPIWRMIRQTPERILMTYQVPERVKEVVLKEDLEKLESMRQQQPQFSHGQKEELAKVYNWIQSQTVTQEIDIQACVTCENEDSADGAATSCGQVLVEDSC
UniProt P61163, whole entry: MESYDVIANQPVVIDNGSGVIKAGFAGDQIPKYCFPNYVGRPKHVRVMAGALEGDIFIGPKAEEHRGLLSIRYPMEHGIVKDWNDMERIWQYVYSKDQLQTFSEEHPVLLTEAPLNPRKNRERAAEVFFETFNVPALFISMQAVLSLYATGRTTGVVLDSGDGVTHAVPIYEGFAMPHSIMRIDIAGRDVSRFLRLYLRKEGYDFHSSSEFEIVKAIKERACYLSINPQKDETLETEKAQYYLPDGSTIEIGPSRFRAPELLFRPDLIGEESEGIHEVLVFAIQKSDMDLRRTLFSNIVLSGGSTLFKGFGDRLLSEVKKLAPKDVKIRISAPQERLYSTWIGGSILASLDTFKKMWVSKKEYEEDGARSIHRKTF
UniProt P54886: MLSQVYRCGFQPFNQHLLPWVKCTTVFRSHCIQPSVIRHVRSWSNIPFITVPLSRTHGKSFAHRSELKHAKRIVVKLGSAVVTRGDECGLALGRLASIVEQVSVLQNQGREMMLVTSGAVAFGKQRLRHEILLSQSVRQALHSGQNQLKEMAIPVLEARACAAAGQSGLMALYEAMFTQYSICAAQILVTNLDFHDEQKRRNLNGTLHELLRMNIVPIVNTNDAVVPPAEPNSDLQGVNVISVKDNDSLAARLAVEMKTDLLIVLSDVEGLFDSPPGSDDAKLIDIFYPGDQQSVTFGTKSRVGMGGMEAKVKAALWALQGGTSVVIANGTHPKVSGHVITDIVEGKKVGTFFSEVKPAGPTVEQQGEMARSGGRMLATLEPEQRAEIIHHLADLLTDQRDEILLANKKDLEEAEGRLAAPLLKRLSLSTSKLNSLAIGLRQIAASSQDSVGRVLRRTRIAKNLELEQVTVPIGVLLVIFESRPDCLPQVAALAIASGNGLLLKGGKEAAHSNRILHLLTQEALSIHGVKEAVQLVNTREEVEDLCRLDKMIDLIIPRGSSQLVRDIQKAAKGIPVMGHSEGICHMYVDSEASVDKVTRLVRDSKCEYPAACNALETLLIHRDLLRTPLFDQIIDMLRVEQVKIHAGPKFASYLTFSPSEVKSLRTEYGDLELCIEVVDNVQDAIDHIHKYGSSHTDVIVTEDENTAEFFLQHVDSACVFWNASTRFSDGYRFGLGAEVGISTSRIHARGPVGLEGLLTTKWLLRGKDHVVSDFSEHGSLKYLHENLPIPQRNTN
UniProt P61081: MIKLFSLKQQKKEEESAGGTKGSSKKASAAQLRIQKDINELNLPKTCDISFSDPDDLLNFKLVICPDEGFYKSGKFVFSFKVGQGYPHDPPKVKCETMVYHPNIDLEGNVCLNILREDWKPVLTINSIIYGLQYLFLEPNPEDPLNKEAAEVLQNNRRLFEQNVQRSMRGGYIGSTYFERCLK
UniProt P60983, whole entry: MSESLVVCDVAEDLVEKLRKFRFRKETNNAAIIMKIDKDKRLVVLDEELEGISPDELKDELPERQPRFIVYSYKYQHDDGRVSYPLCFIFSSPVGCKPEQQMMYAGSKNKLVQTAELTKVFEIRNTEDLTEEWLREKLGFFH

These targets were tested with Cc1nc(Nc2ncc(C(=O)Nc3c(C)cccc3Cl)s2)cc(N2CCN(CCO)CC2)n1 [dasatinib] (assay: log2 fold change of tryptic peptide abundance, ligand vs vehicle (limited proteolysis) (log2 ratio); higher = more trypsin-susceptible (destabilized)). Details: ligand concentration: 5 uM; sample: K562 cleared lysate.
“RPS27A (peptide sequence: LRRECPSDECGAGVFMASHFDR, peptide start residue: 117) (UniProt P62979)” showed a log2 fold change of -0.169. Work on “UniProt P60866 (peptide sequence: DTGKTPVEPEVAIHRIR, peptide start residue: 5)” yielded a log2 fold change of 0.802. With “UniProt P61289 (peptide sequence: LLIEKCNTVK, peptide start residue: 128)” the log2 fold change was -0.487. In the case of “UniProt P57729 (peptide sequence: ATIGVDFALK, peptide start residue: 56)”, the log2 fold change was -0.0119. Target “MRPS6 (peptide sequence: TIEALMDR, peptide start residue: 25) (UniProt P82932)” has a log2 fold change of 0.0533. “UniProt P58317 (peptide sequence: YSSYLNSHMR, peptide start residue: 155)” gave a log2 fold change of -0.86. “UniProt P62847 (peptide sequence: MNDTVTIR, peptide start residue: 1)” gave a log2 fold change of 0.125. In the case of “UniProt P61026 (peptide sequence: FHTITTSYYR, peptide start residue: 71)”, the log2 fold change was -0.216. “NDUFV3 (peptide sequence: GLASTVSLSAESGK, peptide start residue: 27) (UniProt P56181)” showed a log2 fold change of 0.133. For “UniProt P62310 (peptide sequence: NIPMLFVR, peptide start residue: 81)”, the log2 fold change was -0.0616. “HNRNPH2 (peptide sequence: YGDGGSSFQSTTGHCVHMR, peptide start residue: 276) (UniProt P55795)” was tested, and the log2 fold change was -0.039. For “UniProt P62491 (peptide sequence: AQIWDTAGQER, peptide start residue: 62)”, the log2 fold change was 0.0747. Work on “UniProt P68036 (peptide sequence: ADLAEEYSK, peptide start residue: 123)” yielded a log2 fold change of 0.169. In the case of “CNBP (peptide sequence: CGESGHLAR, peptide start residue: 161) (UniProt P62633)”, the log2 fold change was -0.0997. With “PRDM15 (peptide sequence: LATTTTDTSSVPK, peptide start residue: 688) (UniProt P57071)” the log2 fold change was 0.163. With “UniProt P62917 (peptide sequence: ASGNYATVISHNPETKKTR, peptide start residue: 129)” the log2 fold change was 0.183. For “SH3BGR (peptide sequence: KQQEVVGFLEANKIDFK, peptide start residue: 82) (UniProt P55822)”, the log2 fold change was 0.585. “POLE2 (peptide sequence: IINAVEKQPLSSNMIER, peptide start residue: 48) (UniProt P56282)” gave a log2 fold change of -0.291. In the case of “KLF3 (peptide sequence: THTGEKPYK, peptide start residue: 492) (UniProt P57682)”, the log2 fold change was -0.189. “PRMT2 (peptide sequence: AGCCGYIPANHVGK, peptide start residue: 73) (UniProt P55345)” gave a log2 fold change of 0.187. “PER3 (peptide sequence: EEEKWEAQSEGHPFITSR, peptide start residue: 903) (UniProt P56645)” was tested, and the log2 fold change was 0.318. “UniProt P61313 (peptide sequence: GATYGKPVHHGVNQLKFAR, peptide start residue: 78)” showed a log2 fold change of 0.502. In the case of “UniProt P61163 (peptide sequence: EGYDFHSSSEFEIVK, peptide start residue: 201)”, the log2 fold change was 0.51. With “ALDH18A1 (peptide sequence: FGLGAEVGISTSR, peptide start residue: 733) (UniProt P54886)” the log2 fold change was -0.265. “MAX (peptide sequence: NHTHQQDIDDLKR, peptide start residue: 78) (UniProt P61244)” was tested, and the log2 fold change was -0.23. With “UniProt P61081 (peptide sequence: SMRGGYIGSTYFERCLK, peptide start residue: 167)” the log2 fold change was -0.242. For “EEFSEC (peptide sequence: SEPSQHVVLSLTFK, peptide start residue: 569) (UniProt P57772)”, the log2 fold change was 0.32. Target “UniProt P62854 (peptide sequence: GHVQPIRCTNCARCVPK, peptide start residue: 16)” has a log2 fold change of 0.133. “GMFB (peptide sequence: EKLGFFH, peptide start residue: 136) (UniProt P60983)” showed a log2 fold change of 0.308.
